Some of these results come from one statement about several compounds together.
Key:
Alternaria brassicae = assay: In vivo test on Alternaria brassicae (leaf spot of crucifers) on radish plants; details: dose of 330 ppm; radish plants sprayed 24 hours before contamination; grading 6 to 7 days after contamination, in comparison with control plants
Description: The active ingredient tested is prepared by potter homogenization in a concentrated suspension type formulation at 100 g/l. This suspension is then diluted with water to obtain the desired active material concentration.
Radish plants (Pernot variety) in starter cups, sown on a 50/50 peat soil-pozzolana substrate and grown at 18-20° C., are treated at the cotyledon stage by spraying with the aqueous suspension described above.
Plants, used as controls, are treated with an aqueous solution not containing the active material.
After 24 hours, the plants are contaminated by spraying them with an aqueous suspension of Alternaria brassicae spores (40,000 spores per cm^3). The spores are collected from a 12-13-day-old culture.
The contaminated radish plants are incubated for 6-7 days at about 18° C., under a humid atmosphere.
Grading is carried out 6 to 7 days after the contamination, in comparison with the control plants.

Pyrenophora teres = assay: In vivo test on Pyrenophora teres (barley net blotch); details: dose of 330 ppm; barley plants sprayed 24 hours before contamination; grading 12 days after contamination, in comparison with control plants
[1] = test system: Erysiphe graminis f. sp. tritici; assay: In vivo test on Erysiphe graminis f. sp. tritici (powdery mildew of wheat); details: dose of 330 ppm; wheat plants sprayed 24 hours before contamination; grading 7 to 14 days after contamination, in comparison with control plants

Compound: O=C(N[C@@H]1CCCC[C@@H]1c1ncc(C(F)(F)F)cc1Cl)c1ccccc1C(F)(F)F (relative stereo) [Compound 1, N-{2-[3-chloro-5-(trifluoromethyl)-2-pyridinyl]-cis-cyclohexyl}-2-(trifluoromethyl)benzamide]
- protection (good, at least 50%, or total) (Alternaria brassicae): at least 50%
- protection (good, at least 50%, or total) (Pyrenophora teres): at least 50%
- protection (good, at least 50%, or total) [1]: at least 50%

Compound: O=C(N[C@@H]1CCCC[C@H]1c1ncc(C(F)(F)F)cc1Cl)c1ccccc1C(F)(F)F (relative stereo) [Compound 2, N-{2-[3-chloro-5-(trifluoromethyl)-2-pyridinyl]-trans-cyclohexyl}-2-(trifluoromethyl)benzamide]
- protection (good, at least 50%, or total) (Alternaria brassicae): at least 50%
- protection (good, at least 50%, or total) (Pyrenophora teres): at least 50%
- protection (good, at least 50%, or total) [1]: at least 50%

Compound: O=C(NC1CCCCC1c1ncc(C(F)(F)F)cc1Cl)c1ccccc1C(F)F (stereo not drawn) [Compound 3, N-{2-[3-chloro-5-(trifluoromethyl)-2-pyridinyl]cyclohexyl}-2-(difluoromethyl)benzamide]
- protection (good, at least 50%, or total) (Alternaria brassicae): at least 50%
- protection (good, at least 50%, or total) (Pyrenophora teres): at least 50%

Compound: O=C(NC1CCCCCC1c1ncc(C(F)(F)F)cc1Cl)c1ccccc1I (stereo not drawn) [Compound 7, N-{2-[3-chloro-5-(trifluoromethyl)-2-pyridinyl]cycloheptyl}-2-iodobenzamide]
- protection (good, at least 50%, or total) (Pyrenophora teres): at least 50%

Source: patent publication US7524968B2, “2-pyridinylcycloalkylbenzamide derivatives and their use as fungicides” (Bayer Cropscience S.A., priority 2004, dated 2009)
